Hit rate of the full screen: of about 320,000 compounds, about 620 (0.19%) were called active. The shares of active, inactive and inconclusive entries below differ from those in the screen. No stated cut-off is given here; in the data, active means activation above about 80%; inconclusive means between about 30% and that limit; inactive means weaker than that.
target: Transient receptor potential cation channel subfamily V member 1 (Homo sapiens) (UniProt Q8NER1); test: HTS Assay for Compounds that Act as Agonists of the Vanilloid Receptor 1; conditions: TRPV1-expressing cells, Fluo-8 calcium influx, agonist mode; at 8.33 µM, active compounds read high; further: 0% is about no effect
Method in brief: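 Fluo-8 calcium influx in TRPV1-expressing cells, kinetic read (ex 480/em 520 nm). Compound added and read 3 min for agonist activity, followed by capsaicin at EC20 final and 2 min further read for enhancement.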

Amino acid sequences for entries named in this document (tags omitted).
UniProt Q8NER1, whole entry, looked up: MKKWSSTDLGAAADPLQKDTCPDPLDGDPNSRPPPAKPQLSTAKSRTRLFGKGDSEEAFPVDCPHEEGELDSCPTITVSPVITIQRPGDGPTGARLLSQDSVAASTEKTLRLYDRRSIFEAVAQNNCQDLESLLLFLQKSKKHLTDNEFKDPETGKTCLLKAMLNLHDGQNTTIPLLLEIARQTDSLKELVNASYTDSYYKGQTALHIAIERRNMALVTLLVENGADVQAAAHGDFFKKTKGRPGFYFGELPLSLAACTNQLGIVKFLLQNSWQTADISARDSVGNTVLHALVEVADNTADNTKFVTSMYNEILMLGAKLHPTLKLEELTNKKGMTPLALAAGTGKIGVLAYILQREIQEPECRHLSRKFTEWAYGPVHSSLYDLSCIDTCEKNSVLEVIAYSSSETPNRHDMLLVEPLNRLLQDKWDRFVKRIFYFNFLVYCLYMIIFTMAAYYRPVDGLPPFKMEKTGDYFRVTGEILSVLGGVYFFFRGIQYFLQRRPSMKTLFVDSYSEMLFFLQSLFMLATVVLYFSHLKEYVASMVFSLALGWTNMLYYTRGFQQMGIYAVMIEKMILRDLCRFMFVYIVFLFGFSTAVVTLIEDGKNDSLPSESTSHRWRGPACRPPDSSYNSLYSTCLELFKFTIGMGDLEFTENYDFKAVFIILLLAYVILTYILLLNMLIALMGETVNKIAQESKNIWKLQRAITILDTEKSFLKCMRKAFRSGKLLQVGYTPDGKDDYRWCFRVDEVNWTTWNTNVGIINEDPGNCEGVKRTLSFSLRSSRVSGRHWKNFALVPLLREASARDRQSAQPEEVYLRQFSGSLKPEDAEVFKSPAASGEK

SMILES | activation
CCCc1ccc2oc(C(=O)NCCN3CCCC(C(N)=O)C3)c(C)c2c1 (stereo not drawn) | inconclusive: 52.7%
Cc1ccc(-c2cc(-c3ccccc3)nc(NN)n2)cc1 | inconclusive: 44%
O=C(CCCN=C1NS(=O)(=O)c2ccccc21)OCc1ccc(F)cc1 | inconclusive: 30.4%
O=C(COC(=O)c1ccc2c(c1)OCO2)NCc1ccc(Cl)cc1 | inconclusive: 39.2%
CC(=O)Nc1ccc(S(=O)(=O)NCCC(=O)OCc2nnc(-c3ccccc3)o2)cc1 | inactive: -4.73%
COc1ccccc1CN1CCNC(=O)C1CC(=O)NCCC1=CCCCC1 (stereo not drawn) | inactive: 3.2%
COCCCNc1oc(/C=C/c2ccccc2)nc1C#N | inconclusive: 36.1%
COc1cc(C(=O)OCC(=O)NCc2ccccc2)cc(NC(=O)c2ccco2)c1OC | inconclusive: 30.3%
Cc1cccn2c(=O)c3cc(C(=O)NC4CCCCCC4)sc3nc12 | inconclusive: 36.6%
N#Cc1cnn2c(-c3ccccc3)ccnc12 | inactive: -1.42%
CN(Cc1cccs1)c1nc(-c2cccnc2)nc2ccccc12 | inconclusive: 32.4%
COc1cc(CNC(=O)CCCCCCC(C)C)ccc1O | inconclusive: 71.4%
CCC(=O)N1CCN(c2ccccc2NC(=O)Cc2ccc(Cl)cc2)CC1 | inactive: 2.42%
Cc1ccc(C2=NN(C)c3nc4ccccc4n3C2)cc1 | active: 84.2%
Cc1cc(-c2nn(-c3ccccc3F)cc2CN2CCN(c3ccccn3)CC2)c(C)s1 | inconclusive: 41.2%
Cc1nn2c(=O)c3c4c(sc3nc2n1-c1ccccc1)COC(C)(C)C4 | inactive: 16.4%
CCc1ccc(OCC(=O)NCCOc2ccccc2)cc1 | inconclusive: 38%
CCO[C@H]1OC(C(=O)NCc2ccccc2)=C[C@@H](C2CC2)[C@@H]1CCCO | inactive: 18.7%
COc1cc(-n2c(=O)c3ccccc3n(CC(=O)c3ccc(Br)cc3)c2=O)cc(OC)c1OC | inactive: 3.93%
COC(=O)c1ccc(CNCC(O)COc2ccc(-c3ccccc3)cc2)cc1 (stereo not drawn) | inactive: 1.11%

SMILES | activation
O=C(c1ccc(S(=O)(=O)N2CCCCC2)cc1)N1CCCc2ccccc21 | inconclusive: 39.9%
COc1ccc(Cl)cc1N(CC(=O)NC(C)(C)C)S(=O)(=O)c1ccc(C)c([N+](=O)[O-])c1 | inactive: 9.42%
CC(C)CCNC(=O)[C@H](Cc1ccccc1)N1Cc2ccccc2C1=O | inconclusive: 43.6%
Cc1ccccc1NC(=O)CSc1nnc(-c2ccoc2C)n1CCc1ccccc1 | inconclusive: 48.5%
CCOc1ccc(NC(=O)NC(=O)N(C(C)C)S(C)(=O)=O)cc1 | inactive: -3.03%
O=C1C=C(c2ccc(Cl)c(C(F)(F)F)c2)C[C@@H](c2ccc(Cl)cc2)C1 | inconclusive: 74.4%
CCn1cc(C(=O)O)c(=O)c2cc(S(=O)(=O)N3CCCCCC3)ccc21 | inactive: -8.33%
Cc1ccc2cc(C)c(SCC(=O)Nc3ccc(S(=O)(=O)N4CCCC4)cc3)nc2c1 | inactive: 8.79%
CCn1c(=S)[nH]c2scc(-c3cccs3)c2c1=O | inactive: 2.2%
Cc1cccc2sc(N(CCCN(C)C)C(=O)COc3ccc(Cl)cc3)nc12 | inactive: 13%
C=CCNc1oc(/C=C/c2ccccc2)nc1C#N | inconclusive: 36.2%
Cc1ccc(C2=NCCn3nc4cc(C(F)(F)F)ccc4c32)cc1 | inconclusive: 32.3%
Cc1cc(C)c2c(=O)n(CC(=O)N3CCC(Cc4ccccc4)CC3)sc2n1 | inactive: 8.25%
CC1SCC(NC(=O)c2cccc(Cl)c2)CS1 (stereo not drawn) | inconclusive: 56.7%
O=C(CN(c1cccc(C(F)(F)F)c1)S(=O)(=O)c1ccc(Cl)c([N+](=O)[O-])c1)NCc1ccc(F)cc1 | inconclusive: 73.7%
Cc1cccc(CSCc2ccc(C(=O)NCC3CCCO3)o2)c1 (stereo not drawn) | inconclusive: 33.8%
Cc1cc([N+](=O)[O-])ccc1NC(=S)NC(=O)C(c1ccccc1)c1ccccc1 | inactive: -1.6%
CCc1nc(Nc2ccc(O)cc2)c2oc3ccccc3c2n1 | inconclusive: 64.1%
COc1ccc(C(C)NC(=O)Cc2ccc(Br)cc2)cc1 (stereo not drawn) | inconclusive: 60%
O=C(c1cccc(OC2CCN(Cc3cc(F)cc(F)c3)CC2)c1)N1CCCC1 | inactive: 10.4%

Part of the list above, in markdown:

| SMILES | activation |
| --- | --- |
| COc1ccc(Cl)cc1N(CC(=O)NC(C)(C)C)S(=O)(=O)c1ccc(C)c([N+](=O)[O-])c1 | inactive: 9.42% |
| CC(C)CCNC(=O)[C@H](Cc1ccccc1)N1Cc2ccccc2C1=O | inconclusive: 43.6% |
| Cc1ccccc1NC(=O)CSc1nnc(-c2ccoc2C)n1CCc1ccccc1 | inconclusive: 48.5% |

(next part)

SMILES | activation
O=C(Nc1ccc2c(c1)oc1ccccc12)c1cccnc1 | inactive: -3.49%
O=C(Nc1ccc2c(c1)CCC2)c1cnc(Cl)c(Cl)c1 | inconclusive: 52.4%
COc1cccc(-c2noc(CCCC(=O)Nc3ccc(C(N)=O)cc3)n2)c1 | inconclusive: 38.9%
Nc1c(C(=O)NCc2ccc3c(c2)OCO3)nnn1CC(=O)Nc1ccc(Br)cc1 | inactive: 9.36%
COc1cccc(-c2nnc(NC(=O)c3ccc(Cl)s3)o2)c1 | inactive: 0.742%
COc1cccc(NC(=O)CN2C(=O)COc3ccc(S(=O)(=O)N4CCCCCC4)cc32)c1 | inactive: 14.8%
CCN(CC)c1ccc(NC(=O)c2ccc3c(c2)OCO3)c(C)c1 | active: 82.4%
CCc1c(C)c2ccc(O)c(CN(C)C)c2oc1=O | inactive: -0.248%
CC1CCC(NC(=O)CCn2ccc3cc(S(=O)(=O)N4CCCC4)ccc32)CC1 (stereo not drawn) | inactive: 16%
CC(=O)c1ccc(NC(=O)CSC(=S)N2CCCC2)cc1 | inconclusive: 65.5%
O=S(=O)(c1ccc2ccccc2c1)N1CCN(Cc2ccccn2)CC1 | inactive: -3.57%
CC(C)(C)c1ccc(C(=O)Nc2cccc3ncccc23)cc1 | inconclusive: 42.2%
Cn1cccc1/C=N/NC(=O)c1sc2ccccc2c1Cl | inconclusive: 42.7%
O=C(c1cccs1)N1CCN(c2ccc(Cl)cc2)CC1 | inconclusive: 50%
O=C(Nc1ccc(N2CCCC2)c(Cl)c1)c1ccc([N+](=O)[O-])cc1 | inconclusive: 58.5%
CCn1c(N2CCN(C(=O)Nc3ccc(F)cc3)CC2)nc2ccccc21 | inconclusive: 59.2%
Fc1ccccc1CNC(=S)Nc1cccc(C(F)(F)F)c1 | inconclusive: 68.7%
Cc1ccc(-n2c(-c3ccc(Cl)cc3)c[n+]3c2CCC3)cc1 | inactive: 1.23%

From PubChem BioAssay AID540275 (National Center for Advancing Translational Sciences (NCATS), 2011)
